# Patent publication US5770593A, “Method of determining a pharmaceutical combination preparations for use in anti-neoplastic therapy” (Boehringer Mannheim GmbH, priority 1988, dated 1998)
# Entries after “also recorded” stand apart in the source; their conditions may differ. Where two headings read alike, the source gives them in different places. At least one structure is not confirmed: it was looked up by name or label, or the drawing left a doubt.
# Experiments:
# Walker carcinoma cells = assay: Inhibition of multiplication of Walker cells (cell proliferation), single active material or combination, Chou and Talalay analysis; assay type: cell-based, rat; conditions: combination of the inhibitor with cis-DDP, 48 hours; method of Chou and Talalay
# protein kinase C = assay: Inhibition of protein kinase C (PK-C): in vitro method, 32P incorporation into H1 histone; assay type: biochemical, rat
# Protocol: b) Inhibition of protein kinase C (PK-C): in vitro method.
# However, to the extracts was additionally added 1 mM phenylmethanesulphonyl chloride, 20 μg./ml. leupeptin and 2 μg./ml. aprotinin. […] 1,2-s,n-diolein. The reaction time was 10 minutes at 32° C. The enzyme reaction was stopped by the addition of 1 ml. 20% trichloroacetic acid (w/v). The protein was precipitated out on Whatman GF/F filter paper and counted with the help of a liquid scintillation counter.
# Quercetin was solubilised in dimethyl sulphoxide (DMSO). For the batch mixing, the solution in DMSO was made up to a DMSO end concentration of 1%. An equivalent amount of pure DMSO was added to the control groups. The influence of quercetin on the cell multiplication was investigated by the addition of the active material in DMSO to the culture medium up to an end concentration of 0.1%. The cells were cultured in the presence of the active material for 48 hours. The control group only received pure DMSO.
smiles,measurement,setting,value
"CCCCCCCCCCCCCCCCCCOCC(COP(=O)([O-])OCC[N+](C)(C)C)OC (stereo not drawn) [ET-18-OCH3, 4-hydroxy-7-methoxy-N,N,N-trimethyl-3,5,9-trioxa-4-phosphaheptacosan-1-aminium 4-oxide]",nature of the activity,Walker carcinoma cells,synergism; also recorded: synergistic action
same,IC50,"protein kinase C; Table 1, 50% inhibition of the protein kinase C, read-out: inhibition of the protein kinase C IC50",24.8 µM
same,IC50,"protein kinase C; protein kinase C enriched from Walker cells, 10 minutes at 32° C., pH 7.4, read-out: IC50, inhibition of protein kinase C (Examples 2-6)",24.8 µM
